Experimental data reported in patent publication US20100061969A1, “DIETARY SUPPLEMENT, ANTI-FATIGUE AGENT OR PHYSICAL ENDURANCE ENHANCER, FUNCTIONAL FOOD, OR COSMETIC” (ASAHI KASEI PHARMA CORPORATION, priority 2006, published 2010).

Tested on: coenzyme Q9
Assay: Coenzyme Q9 oxidation ratio in blood after forced oral administration
Type: in vivo, rat
Details: rats; for Average value of CoQ9 oxidation ratio: oxidized coenzyme Q9 based on total coenzyme Q9
Protocol: Seven-week-old male Slc:SD rats were preliminarily fed for 7 days, and forced oral administration (repeated oral administration) was performed for 4 rats with phosphatidylinositol at 100 mg/kg/day for 1 week. Then, forced oral administration was performed with phosphatidylinositol at 100 mg/kg/day and oxidized coenzyme Q10 at 100 mg/kg/day at the same time (PI-administered group). 0, 2, 4, and 6 hours after the forced oral administration with both phosphatidylinositol and coenzyme Q10, the whole blood was collected from the postcaval vein using heparinized injection needles and syringes under diethyl ether anesthesia. Collected blood was immediately centrifuged (4° C., 3,000 rpm, 10 minutes) to separate plasma. The separated plasma samples were used for an analysis of coenzyme Q10 by HPLC. As comparative examples, the above-mentioned procedures were performed for the group which was subjected to forced oral administration (repeated oral administration) with soybean lecithin at 500 mg/kg/day (100 mg/kg/day in terms of phosphatidylinositol) instead of phosphatidylinositol for 1 week and then to forced oral administration with both phosphatidylinositol at 100 mg/kg/day and oxidized coenzyme Q10 at 100 mg/kg/day at the same time (soybean lecithin-administered group), and the group which was subjected to forced oral administration with both phosphatidylinositol at 100 mg/kg/day and oxidized coenzyme Q10 at 100 mg/kg/day simultaneously without preliminary administration of phosphatidylinositol (PI non-administration group).

phosphatidylinositol
Average value of CoQ9 oxidation ratio (0 hr): 24 nM
Average value of CoQ9 oxidation ratio (2 hr): 14 nM
Average value of CoQ9 oxidation ratio (4 hr): 13 nM
Average value of CoQ9 oxidation ratio (6 hr): 7.4 nM
coenzyme Q9 oxidation ratios compared with the PI non-administration group (1 week pre-administration): tendency to be lower
